Results are given in words; binding and its absence hold for the method and conditions named. Some entries that bind do so weakly or less than the wild type.

The chains behind the UniProt entries cited, without tags or fusion partners. Where a name states a change or a piece, a line headed by the entry shows the natural chain unless it says otherwise. A line that says so, or that is headed by a name, gives the form on record, which may keep a tag or linker.
hCLDN18.2 (antigen of the scFv screening) (P56856, form named): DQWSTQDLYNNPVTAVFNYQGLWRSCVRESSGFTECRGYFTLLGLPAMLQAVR

The experiment concerns the target hCLDN18.2 (antigen of the scFv screening) (human) (UniProt P56856). Description: ELISA or flow cytometry, scFv screening.

B1: YU577-E08 (scFv as screened) (scFv, V domains shown)
VH: QVQLVQSGAEVKKPGASVKVSCKASGYTFTSYYMHWVRQAPGQGLEWMGIINPSGGSTSYAQKFQGRVTMTRDTSTSTVYMELSSLRSEDTAVYYCATRQFDYWGQGTLVTVSS
VL: QSVLTQPPSVSAAPGQKVTISCSGSSSNIGNNYVSWYQQLPGTAPKLLIYENNKRPSGIPDRFSGSKSGTSATLGITGLQTGDEADYYCGTWDSSLSAAVFGGGTKVTVL
With B1, the binding entry is “binds”.

B2: YU574-D11 (scFv as screened) (scFv, V domains shown)
VH: QVQLVQSGGGLVQPGGSLRLSCAASGFTFSSYAMSWVRQAPGKGLEWVSAISGSGGSTYYADSVKGRFTISRDNSKNTLYLQMNSLRAEDTAVYYCAGGANGFDPWGQGTLVTVSS
VL: QSVLTQPPSVSGAPGQRVTISCTGSSSNIGAGYDVHWYQQLPGTAPKLLIYGNSNRPSGVPDRFSGSKSGTSASLAITGLQAEDEADYYCQSYDSSLSGLVFGGGTKLTVL
As to B2, the binding result is reported as “binds”.

Values taken from US20250002576A1.
